Source: PubChem BioAssay AID651768 (National Center for Advancing Translational Sciences (NCATS), 2012)
Screen size: about 360,000 compounds; about 1,700 (0.47%) were called active. Inconclusive means that the source gave no clear call. Such entries were picked first, then a sample of the others. The call rests on the fitted dose curve; in most records, active means well fitted inhibition curve with a large enough effect; inconclusive means small, poorly fitted or top-dose-only effect; inactive means no such curve, though single readings can be large or run the other way. Potencies of inconclusive entries are doubtful fits and often do not repeat.
Further: nearly all actives have a fitted effect of over 55% in size.
On the % scale 0 is the no-effect control and ±100 the full control effect; potency means the concentration at half of the fitted maximal effect.

Protein sequences, listed by entry. Tags and fused reporters are not part of them.
UniProt Q14191, whole entry, looked up: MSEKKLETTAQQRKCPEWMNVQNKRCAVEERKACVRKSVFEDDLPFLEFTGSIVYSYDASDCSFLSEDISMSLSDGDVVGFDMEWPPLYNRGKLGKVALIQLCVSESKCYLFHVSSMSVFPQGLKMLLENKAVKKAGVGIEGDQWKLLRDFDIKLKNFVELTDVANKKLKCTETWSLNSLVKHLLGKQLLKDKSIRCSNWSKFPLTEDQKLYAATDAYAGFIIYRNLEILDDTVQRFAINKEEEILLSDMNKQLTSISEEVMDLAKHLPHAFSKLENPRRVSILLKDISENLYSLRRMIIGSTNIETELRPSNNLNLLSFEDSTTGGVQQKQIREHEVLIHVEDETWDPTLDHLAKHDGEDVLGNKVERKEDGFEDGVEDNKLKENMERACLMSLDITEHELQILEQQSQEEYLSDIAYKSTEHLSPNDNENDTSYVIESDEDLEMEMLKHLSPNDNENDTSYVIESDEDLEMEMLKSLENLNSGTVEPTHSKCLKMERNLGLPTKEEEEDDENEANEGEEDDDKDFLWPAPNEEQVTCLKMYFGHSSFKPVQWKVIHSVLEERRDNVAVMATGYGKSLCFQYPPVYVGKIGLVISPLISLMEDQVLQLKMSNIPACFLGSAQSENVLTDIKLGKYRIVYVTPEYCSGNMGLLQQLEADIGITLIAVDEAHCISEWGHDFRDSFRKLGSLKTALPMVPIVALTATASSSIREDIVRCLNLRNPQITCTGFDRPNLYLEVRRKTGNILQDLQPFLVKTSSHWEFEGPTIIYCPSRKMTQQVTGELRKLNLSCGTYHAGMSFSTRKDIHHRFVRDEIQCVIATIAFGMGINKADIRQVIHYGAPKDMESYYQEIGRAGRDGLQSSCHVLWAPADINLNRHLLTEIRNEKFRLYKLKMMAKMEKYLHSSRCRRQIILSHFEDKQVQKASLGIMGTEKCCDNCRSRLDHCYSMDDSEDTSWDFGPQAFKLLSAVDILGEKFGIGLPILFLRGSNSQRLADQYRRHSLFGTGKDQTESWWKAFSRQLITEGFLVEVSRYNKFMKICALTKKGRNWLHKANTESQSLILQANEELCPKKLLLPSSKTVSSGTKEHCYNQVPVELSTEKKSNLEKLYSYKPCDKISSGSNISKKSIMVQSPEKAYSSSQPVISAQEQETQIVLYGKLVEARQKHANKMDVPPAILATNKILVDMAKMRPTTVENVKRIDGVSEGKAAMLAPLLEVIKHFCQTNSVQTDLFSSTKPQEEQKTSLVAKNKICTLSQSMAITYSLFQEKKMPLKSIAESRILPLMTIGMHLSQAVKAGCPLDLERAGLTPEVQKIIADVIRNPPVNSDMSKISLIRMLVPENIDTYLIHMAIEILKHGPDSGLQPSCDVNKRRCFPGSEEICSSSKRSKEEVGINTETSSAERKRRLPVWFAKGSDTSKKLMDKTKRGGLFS

What follows are compounds tested against Bifunctional 3'-5' exonuclease/ATP-dependent helicase WRN (Homo sapiens) (UniProt Q14191) (assay: qHTS for Inhibitors of WRN Helicase). Details: WRN helicase unwinding, fluorescent forked duplex, kinetic; activity change, negative = inhibition: at 114 µM (top of the series) unless noted.
Procedure, shortened: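 Fluorescence dequenching readout, ex 525 nm/em 598 nm, kinetic mode: forked duplex DNA (100 nM final) with adjacent fluorophore and quencher unwound by WRN (20 nM final) with 2 mM ATP. Compound preincubation 15 min, room temperature.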
For `CCOC(=O)c1cnc(-n2[nH]c(C)cc2=O)[nH]c1=O`, the Potency was active: 56.2 µM. With `Cc1ccc(-n2nc3c(c2NC(=O)c2cc4ccccc4o2)CS(=O)(=O)C3)cc1` the Potency was “inactive”. For `Cn1c(SCC(=O)Nc2ccc3nc(SCC(=O)N4CCCC4)sc3c2)nnc1-c1ccccc1`, the Potency was inconclusive: 50.1 µM [inhibitor, partial curve]. For `COc1ccc([C@H]2N[C@]3(CCCN(Cc4ccc(Br)cc4)C3=O)[C@H]3C(=O)N(Cc4ccccc4)C(=O)[C@@H]23)cc1`, the Potency was “inactive”. For `Nc1nccnc1C(=O)OCC(=O)NCCc1ccc(S(N)(=O)=O)cc1`, the activity change, negative = inhibition was inactive: -3.26% [at 11.6 µM]. `COc1cc(N2CCCC2)c(OC)cc1/C=C(/C#N)c1cccc(F)c1` was tested, and the Potency was “inactive”. For `CN(C)C(=S)N=Nc1[nH]c2ccccc2c1O`, the Potency was “inactive”. With `CN(C)/C=C1\NC(=S)N(c2ccc(Cl)cc2)C1=O` the Potency was inconclusive: 31.6 µM [inhibitor, single point]. With `COc1ccc(NC(=O)COc2cccc3c2CCN(Cc2cccnc2)C3=O)cc1` the Potency was inconclusive: 89.1 µM [inhibitor, single point]. `Cc1ccccc1N1C(S)=C(C#N)C(=O)NC12CCCCC2` was tested, and the Potency was inconclusive: 12.6 µM [inhibitor, partial curve]. With `Cc1ccc(S(=O)(=O)Nc2cc(C(=O)O)ccc2N2CCCCC2)cc1` the Potency was “inactive”. `CCCCNC(=O)c1sc(=S)n2c1[nH]c(=O)c1ccccc12` was tested, and the Potency was inconclusive: 21.2 µM [inhibitor, partial curve]. In the case of `C#CCOCCOCCOCCNc1nc(N2CCN(C(=O)CCCCCCCCCCNC(=O)[C@H]([C@@H](C)CC)n3cc(CCCCCN)nn3)CC2)nc(N2CCN(C(=O)CCCCCCCCCCNC(=O)[C@H](CO)n3cc(CCCCCN)nn3)CC2)n1`, the Potency is reported as active: 56.2 µM. `CCOC(=O)c1ccc(N2CC(O)=C(c3nc4ccccc4c(=O)[nH]3)C2=N)cc1` was tested, and the Potency was inconclusive: 18.9 µM [inhibitor, partial curve]. In the case of `Cc1nc(CS(=O)(=O)c2ccccc2)cc(N2CCOCC2)n1`, the Potency is reported as inconclusive: 89.1 µM [inhibitor, partial curve]. For `C=CCOC(=O)C1=C[C@@H](c2csc3ccccc23)[C@H](CCCO)[C@@H](OCC)O1`, the Potency was “inactive”. For `O=C1C(=NO)CCc2ccccc21`, the Potency was inconclusive: 39.8 µM [inhibitor, partial curve]. In the case of `COC(=O)C(Sc1ccc(Cl)cc1)C1SC(=S)N(Cc2ccccc2)C1=O` (centres undefined), the Potency is reported as inconclusive: 44.7 µM [inhibitor, partial curve]. `COc1ccccc1NC(=O)CN1CCN(c2ccccc2F)CC1` was tested, and the Potency was inconclusive: 89.1 µM [inhibitor, single point].
